The values below come from PMC9763867.

Chains of the proteins cited; added tags and fusions are not shown.
UniProt O60260: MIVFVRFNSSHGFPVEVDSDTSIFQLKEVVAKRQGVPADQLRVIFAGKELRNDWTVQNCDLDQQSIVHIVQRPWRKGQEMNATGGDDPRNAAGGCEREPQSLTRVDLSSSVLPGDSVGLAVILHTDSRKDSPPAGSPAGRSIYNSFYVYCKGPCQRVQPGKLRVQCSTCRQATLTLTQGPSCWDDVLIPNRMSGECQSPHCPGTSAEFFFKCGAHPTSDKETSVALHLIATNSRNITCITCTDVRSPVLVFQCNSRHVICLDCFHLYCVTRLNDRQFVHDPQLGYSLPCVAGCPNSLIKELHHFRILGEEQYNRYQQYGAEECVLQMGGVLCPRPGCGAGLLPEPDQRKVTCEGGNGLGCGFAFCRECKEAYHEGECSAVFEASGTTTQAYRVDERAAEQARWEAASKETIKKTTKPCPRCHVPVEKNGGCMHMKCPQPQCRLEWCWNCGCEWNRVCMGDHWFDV

No constants are given. Whether binding was seen depends on the method and setting. For some assays here: In cells and extracts the contact can be indirect. Some results given as binding are weak or reduced against the parent protein; the word gives no strength.

One test concerns the target His-PHB2, wild type (UniProt Q99623). The test is described as follows: pull-down; His pull-down: His-tagged protein from E. coli held on His-tag resin, incubated with the GST-tagged protein 2 h at 4 °C, washed four times with PBS, immunoblot; both purified.
For test [1], the target named is endogenous PHB2 of SH-SY5Y cells (human (endogenous in SH-SY5Y)) (UniProt Q99623). The test is described as follows: co-IP; lysates of primary MEFs, SH-SY5Y cells (lentiviral mCherry-Parkin) or HeLa cells treated with 5 μg/ml A/O for 4 h; precipitated with anti-PHB2 antibody; blots with anti-Parkin and anti-LC3.
Test [2] concerns the target 3 × FLAG-PHB2 (prohibitin 2), wild type (UniProt Q99623). The test is described as follows: co-IP; lysates of transfected HEK293T cells (also si-OPTN cells with HA-OPTN and mCherry-Parkin) treated with 5 μg/ml A/O for 4 h; precipitated with anti-FLAG antibody on Protein G Magnetic Beads, 4 °C, 4 h; EGFP-tagged partner detected with anti-GFP.
For test [3] the target is unchanged. The test is described as follows: co-IP; lysates of transfected HEK293T cells treated with DMSO (normal condition, no A/O); precipitated with anti-FLAG antibody; EGFP-Parkin detected with anti-GFP.
The target of test [4] is endogenous PHB2 of HEK293 cells (human (endogenous in HEK293)) (UniProt Q99623). The test is described as follows: proximity ligation; Duolink in situ PLA in fixed, permeabilised HEK293 cells treated with 5 μg/ml A/O for 4 h (with or without MG132 10 μM); anti-GFP with anti-PHB2, or anti-FLAG with anti-LC3.

“GST-Parkin, wild type (from UniProt O60260 1-465)”: the binding entry with His-PHB2, wild type is “binds”. In the case of “mCherry-Parkin (lentiviral, in SH-SY5Y cells) (from UniProt O60260 1-465)”, the binding result in test [1] was “binds”. Take “EGFP-Parkin, wild type (from UniProt O60260 1-465)”: the figures for the binding result in test [2], in test [3] and in test [4] were “binds”, “binds weakly” and “binds”, respectively.
